Measurements: article doi:10.1101/2022.09.16.508221 (bioRxiv, 2022)
No constants are given. Whether binding was seen depends on the method and setting.

Biological target: N-terminal BED domain of the Hermes transposase (residues 1-78) (Musca domestica) (UniProt Q25438)
Assay: crystal structure

binding: no binding
B1: N-terminal BED domain of the Hermes transposase (residues 1-78) (domain or fragment, UniProt Q25438 1-78)
chain: MQKMDNLEVKAKINQGLYKITPRHKGTSFIWNVLADIQKEDDTLVEGWVFCRKCEKVLKYTTRQTSNLCRHKCCASLK
